According to patent US20190048052A1 (Board of Regents of the University of Nebraska, priority 2016, published 2019):
Where a sequence shows no end group, the ends are not given.

Experiment: peptide made by a vendor
Conditions: whole synthesis, detection at 220 nm

First: FFFLSRIF
Second: WWWLKKIW
The “final HPLC purity” value of the first is higher: 97.41% for the first, 96.03% for the second.

Going from WWWLKRIW to WWWLRKIW, the “final HPLC purity” value rises from 95.62% to 96.56%.

Going from WWWLRRIW to WWWLSRIW, the “final HPLC purity” value rises from 96.88% to 98.33%.
